These results are taken from PubChem BioAssay (NCATS).

SMILES strings stand for the structures. “And” between values parts separate entries of the source, which are not always exact repeats. Equal values may be shown once. The list shows a part of the results. Shown are side measurements of this screen, not its main read-out; they come without a call. For part of these data: Most of these compounds were active or inconclusive in the main read-out, so they are no random draw. For part of these data: Words in brackets tell the shape of the fitted curve; partial curves, single points and poor fits give uncertain potencies.

A short description of test [1]: NCATS anti-infectives library activity on the primary C. elegans qHTS viability assay (AID 1745855). Particulars: C. elegans worm area imaging. Put shortly:
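Titration-based screen in worms: eggs hatched overnight in M9, L1 larvae fed TOP10 capsules in S medium with compound, incubated 21 °C for 7 days; fluorescent objects gated by size and intensity at days 0, 3 and 7.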

Test [2] can be described thus: qHTS drug screen for cell cycle checkpoint inhibitors in PARPi-resistant BRCA-mutant ovarian cancer cell lines. (AID 1963452). Particulars: PEO1/OlaR viability, CellTiter-Glo luminescence, 96 h. Put shortly: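 PEO1, PEO4 and PEO1/OlaR ovarian cancer cells, 600 per well, exposed 96 h at 37C to a dilution series. Viability read by CellTiter-Glo luminescence, normalized to DMSO and empty wells; activity summarized as Z-AUC.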

Test [3] is described as follows: qHTS for identification of novel therapeutic agents for treatment of microphthalmiaassociated transcription factor (MiT) renal cell carcinoma (RCC) (AID 1963991). The following applies: CellTiter-Glo, 48 h; for z-score: stronger effect = lower value. In a few lines: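 Curves over 11 concentrations were fitted to CellTiter-Glo luminescence, scaled between empty wells (0%) and DMSO (100%) viability. Cells were UOK109, UOK124 and UOK145 TFE3-fusion RCC lines at 500/well, exposed 48 hours at 37 C.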

Test [4] can be described thus: qHTS assay for small molecule antagonists of peroxisome proliferator-activated receptor delta signaling (AID 588535).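 Also: cells co-treated with a PPAR-delta agonist as stimulator during compound exposure.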 The following applies: HEK293T PPARd-UAS-bla, beta-lactamase FRET ratio, 18 h; 460 nm channel. In a few lines:
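Beta-lactamase reporter read-out (405 nm excitation, 460/530 nm emission) after CCF4 loading for 2 hrs at RT. HEK293T PPAR-delta-UAS-bla cells, 2% charcoal/dextran FBS, compounds for 18 hrs at 37 C. Hill fit gave IC50 and efficacy.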

A short description of test [5]: qHTS assay for small molecule antagonists of peroxisome proliferator-activated receptor gamma signaling (AID 588537). Particulars: HEK293 PPARg-UAS-bla, beta-lactamase ratio, antagonist mode; measured here: W460 blue channel. Put shortly:
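Read-out: CCF4 fluorescence (ex 405, em 460/530 nm) after 2 h at RT. Cells were HEK293 carrying a UAS-bla reporter and treated 16 h at 37 C with compound plus rosiglitazone (50 nM final). Normalized to rosiglitazone and DMSO.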

The mark [6] stands for this setting: day 7, measured here: worm area, day 3.
Setting [7] is: day 7, measured here: worm number, day 3.
Where [8] appears, read: measured here: PEO1 parental viability.
Setting [9] is: TFE3-RCC UOK109 viability, measured here: UOK109 Z-AUC.
Where [10] appears, read: TFE3-RCC viability, measured here: UOK124 Z-AUC.
[11] abbreviates: TFE3-RCC viability, measured here: UOK145 Z-AUC.
Where [12] appears, read: day 7, measured here: worm number.
The mark [13] stands for this setting: TFE3-RCC viability, measured here: UOK145 cell viability.

On to `Fc1ccc(CNc2ncnc3ccc(F)cc23)cc1`, for which the half-maximal activity concentration (AC50) in test [1] (setting [6]) was 578 nM [falling, full curve]; in test [1] (setting [7]), 9160 nM [falling, partial curve, poor fit]; in test [2] (setting [8]), 2.19 µM [falling, partial curve, poor fit]; in test [3] (TFE3-RCC viability, measured here: UOK124 cell viability) it was 8.33 µM [falling, partial curve]. In addition, the z-score in test [3] (setting [9]) is 0.104; in test [3] (setting [10]), 0.937; in test [3] (setting [11]), 0.0745.
Consider `O=c1[nH]cc(F)c(=O)[nH]1`, for which the max response in test [4] was 64.2%. Moreover, the half-maximal activity concentration (AC50) in test [5] is 44.7 µM [rising, single point]; in test [1] (setting [12]), 916 nM [falling, full curve]; in test [1] (setting [6]), 20.5 nM [falling, full curve, poor fit]; in test [1] (setting [7]), 115 nM [falling, full curve, poor fit]; in test [3] (setting [13]), 10.5 µM [falling, partial curve]. Moreover, the figures for the z-score in test [3] (setting [9]), in test [3] (setting [10]) and in test [3] (setting [11]) were 0.0573, 0.734 and 0.133, respectively.
For the compound `N=C(N)c1ccc2cc(OC(=O)c3ccc(N=C(N)N)cc3)ccc2c1`, the AC50 in test [1] (setting [7]) was 290 nM [rising, full curve, poor fit] and 23 µM [falling, single point]; in test [2] (setting [8]) it was 27.5 µM [falling, single point].
In the case of `COc1ccc(-c2nc3ccc(C4=NNC(=O)CC4C)cc3[nH]2)cc1` (configuration not stated), the half-maximal activity concentration (AC50) was 115 nM [falling, full curve, poor fit] in test [1] (setting [6]); 19.5 µM [falling, partial curve, poor fit] in test [2] (setting [8]); 9.77 µM [falling, partial curve, poor fit] in test [2] (measured here: PEO4 viability).
As to `C[C@H](NC(=O)[C@@H](O)c1cc(F)cc(F)c1)C(=O)N[C@@H]1C(=O)N(C)c2ccccc2-c2ccccc21`, the AC50 in test [1] (setting [12]) is 183 nM [falling, full curve]; in test [1] (setting [6]), 258 nM [falling, partial curve, poor fit]; in test [3] (setting [13]), 4.18 µM [falling, partial curve, poor fit]. Besides, the z-score in test [3] (setting [9]) was determined as 0.0978; in test [3] (setting [10]), 0.56; in test [3] (setting [11]) it was 0.114.
